Reference: PMC10419918
Like-named read-outs stand apart in the source and are kept apart here. No constants are given. Whether binding was seen depends on the method and setting. Binding seen in cells or lysates may run through a third protein. Some binding calls cover weakened binding; strength is not graded here. Sequences can lack the tags named with a protein.

Chains of the proteins cited; added tags and fusions are not shown.
UniProt Q96524: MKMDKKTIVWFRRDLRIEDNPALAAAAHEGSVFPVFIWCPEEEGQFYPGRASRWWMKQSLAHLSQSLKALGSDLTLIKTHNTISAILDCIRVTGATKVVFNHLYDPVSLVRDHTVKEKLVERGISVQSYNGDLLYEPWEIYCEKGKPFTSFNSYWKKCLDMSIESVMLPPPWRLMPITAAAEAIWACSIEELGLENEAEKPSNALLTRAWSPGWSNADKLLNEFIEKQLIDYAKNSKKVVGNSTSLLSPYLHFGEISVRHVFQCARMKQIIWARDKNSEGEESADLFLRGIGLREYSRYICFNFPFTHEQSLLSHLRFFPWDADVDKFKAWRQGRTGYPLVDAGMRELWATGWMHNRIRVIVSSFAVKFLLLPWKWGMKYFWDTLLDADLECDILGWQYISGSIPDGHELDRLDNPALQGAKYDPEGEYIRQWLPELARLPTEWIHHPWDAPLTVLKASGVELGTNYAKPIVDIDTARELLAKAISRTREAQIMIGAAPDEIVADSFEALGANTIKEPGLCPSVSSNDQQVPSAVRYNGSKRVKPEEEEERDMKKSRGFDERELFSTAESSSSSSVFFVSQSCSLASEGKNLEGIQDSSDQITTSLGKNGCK

Key:
[1] = molecular target: T1, NF–YC5–nLUC (Arabidopsis) (UniProt Q9FGP6); test: split reporter; firefly luciferase complementation imaging (LCI): NF–YCs–nLUC and cLUC–PIFs transiently expressed in N. benthamiana leaves, in the absence or presence of Myc–CRY2; 1 mM luciferin, 5 min in the dark
T1 sequence: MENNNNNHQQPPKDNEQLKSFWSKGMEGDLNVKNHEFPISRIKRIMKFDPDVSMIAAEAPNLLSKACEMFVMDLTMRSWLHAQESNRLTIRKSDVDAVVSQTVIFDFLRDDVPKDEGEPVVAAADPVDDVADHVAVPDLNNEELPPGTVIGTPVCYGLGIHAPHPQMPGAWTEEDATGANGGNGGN

[2] = molecular target: T2, NF–YC7–nLUC (Arabidopsis) (UniProt Q9FGP8); test: as above
T2 sequence: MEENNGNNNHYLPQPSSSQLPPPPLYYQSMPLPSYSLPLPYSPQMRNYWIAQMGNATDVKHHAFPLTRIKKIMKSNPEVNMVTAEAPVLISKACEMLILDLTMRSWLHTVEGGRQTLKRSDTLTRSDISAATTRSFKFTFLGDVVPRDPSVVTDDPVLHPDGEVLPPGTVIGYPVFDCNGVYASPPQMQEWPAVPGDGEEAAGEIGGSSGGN

[3] = molecular target: T3, GFP–NF–YC7 (Arabidopsis) (UniProt Q9FGP8); test: co-IP; HEK293T cells co-expressing GFP–NF–YCs with Myc–CRY2 and/or Flag–PIFs (CMV5 promoter); cells kept in darkness or blue light (100 μmol m^−2 s^−1, 1 h); GFP–NF–YCs precipitated with GFP–Trap agarose beads; blots with anti–GFP, anti–Myc, anti–Flag
T3 sequence: T2 sequence

[4] = molecular target: T4, GFP–NF–YC8 (Arabidopsis) (UniProt Q4PSE2); test: as above
T4 sequence: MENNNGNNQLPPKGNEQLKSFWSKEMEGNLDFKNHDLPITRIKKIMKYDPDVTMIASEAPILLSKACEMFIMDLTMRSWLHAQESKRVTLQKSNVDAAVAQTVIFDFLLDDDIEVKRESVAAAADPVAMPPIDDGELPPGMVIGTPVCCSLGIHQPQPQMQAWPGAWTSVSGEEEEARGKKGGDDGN

[5] = molecular target: T5, GFP–NF–YC5 (Arabidopsis) (UniProt Q9FGP6); test: as above
T5 sequence: T1 sequence

[6] = molecular target: T6, FGFP–NF–YC8 (Arabidopsis) (UniProt Q4PSE2); test: co-IP; Arabidopsis seedlings Myc–CRY2/FGFP–NF–YCs grown in the dark for 8 days, exposed to blue light (0 min, or 5, 10 and 15 min samples mixed); precipitated with GFP–Trap agarose beads; blots with anti–GFP and anti–Myc
T6 sequence: T4 sequence

[7] = molecular target: T7, FGFP–NF–YC5 (Arabidopsis) (UniProt Q9FGP6); test: as above
T7 sequence: T1 sequence

[8] = molecular target: T8, FGFP–NF–YC7 (Arabidopsis) (UniProt Q9FGP8); test: as above
T8 sequence: T2 sequence

[9] = molecular target: T3, GFP–NF–YC7 (Arabidopsis); test: co-IP; HEK293T cells co-expressing GFP–NF–YCs with Myc–CRY2 and/or Flag–PIFs (CMV5 promoter); cells kept in darkness or blue light (100 μmol m^−2 s^−1, 1 h); GFP–NF–YCs precipitated with GFP–Trap agarose beads; blots with anti–GFP, anti–Myc, anti–Flag; remark: listed apart in the source
[10] = molecular target: T5, GFP–NF–YC5 (Arabidopsis); test: as above; remark: listed apart in the source

Myc–CRY2 (N. benthamiana) (from UniProt Q96524 1-612)
binding [1]: binds | binding [2]: binds

Myc–CRY2 (HEK293T) (from UniProt Q96524 1-612)
binding [3]: binds | binding [4]: binds | binding [5]: binds

Myc–CRY2 (Arabidopsis line) (from UniProt Q96524 1-612)
binding [6]: binds | binding [7]: binds | binding [8]: binds

B1: Flag–PIF5 (HEK293T) (protein, UniProt Q84LH8 1-444)
chain: MEQVFADWNFEDNFHMSTNKRSIRPEDELVELLWRDGQVVLQSQARREPSVQVQTHKQETLRKPNNIFLDNQETVQKPNYAALDDQETVSWIQYPPDDVIDPFESEFSSHFFSSIDHLGGPEKPRTIEETVKHEAQAMAPPKFRSSVITVGPSHCGSNQSTNIHQATTLPVSMSDRSKNVEERLDTSSGGSSGCSYGRNNKETVSGTSVTIDRKRKHVMDADQESVSQSDIGLTSTDDQTMGNKSSQRSGSTRRSRAAEVHNLSERRRRDRINERMKALQELIPHCSRTDKASILDEAIDYLKSLQMQLQVMWMGSGMAAAAAAAASPMMFPGVQSSPYINQMAMQSQMQLSQFPVMNRSAPQNHPGLVCQNPVQLQLQAQNQILSEQLARYMGGIPQMPPAGNQMQTVQQQPADMLGFGSPAGPQSQLSAPATTDSLHMGKIG
binding [9]: binds | binding [10]: binds

B2: cLUC–PIF5 (protein, UniProt Q84LH8 1-444)
chain: B1 chain
binding [1]: binds | binding [2]: binds
